Where a chain is given by its changes, count along the chain named. No constants are given. Whether binding was seen depends on the method and setting. Binding seen in cells or lysates may run through a third protein. For part of these data: A result given as binding can be weak or reduced; the word gives no strength.

Assay [1] concerns the target T1, RONIN (THAP Domain Containing 11) (mouse (endogenous in embryonic brain)) (UniProt Q9JJD0).
T1 sequence: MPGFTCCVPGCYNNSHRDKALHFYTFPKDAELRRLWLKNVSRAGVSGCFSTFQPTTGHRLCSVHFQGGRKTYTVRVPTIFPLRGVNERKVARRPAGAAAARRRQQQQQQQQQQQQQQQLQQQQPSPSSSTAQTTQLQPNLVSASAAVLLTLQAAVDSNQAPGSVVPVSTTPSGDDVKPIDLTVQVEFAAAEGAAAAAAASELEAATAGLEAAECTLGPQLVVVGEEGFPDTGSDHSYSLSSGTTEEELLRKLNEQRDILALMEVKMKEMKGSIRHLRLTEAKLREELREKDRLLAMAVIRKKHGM
The assay can be described thus: co-IP; endogenous proteins from O9-1 cranial neural crest cell line lysate; 500 ug lysate with 1 ug antibody overnight at 4 °C, Protein A/G magnetic beads, western blot. On the technique in general: Immunoblotting shows a protein as a band on a membrane.

In assay [2] the target is T2, RONIN F80L (mouse (endogenous in embryonic brain)) (UniProt Q9JJD0).
T2 sequence: T1 sequence with F80L
In words: co-IP; endogenous proteins from embryonic mouse brain lysate (wild type, Hcfc1 A115V/Y or Ronin F80L/F80L); 500 ug lysate with 1 ug antibody overnight at 4 °C, Protein A/G magnetic beads, western blot.

Assay [3] concerns the target Host Cell Factor C1 (HCFC1) (mouse (endogenous in embryonic brain)). The assay can be described thus: co-IP; endogenous proteins from embryonic mouse brain and retinae; antibody overnight at 4 °C, Protein A/G magnetic beads, western blot.

Take “Host Cell Factor C1 (HCFC1) (mouse (endogenous in embryonic brain))”: the binding result in assay [1] and in assay [2] was “binds” in each case.

B1: ZNF143 (protein, UniProt O70230 1-638)
chain: MLLAQINRDSQGMTEFPGGGMEAQHVTLCLTEAVTVADGDNLENMEGVSLQAVTLADGSTAYIQHNSKDGRLIDGQVIQLEDGSAAYVQHVPIPKSTGDSLRLEDGQAVQLEDGTTAFIHHTSKDSYDQSSLQAVQLEDGTTAYIHHAVQVPQSDTILAIQADGTVAGLHTGDATIDPDTISALEQYAAKVSIDGSDGVTSTGMIGENEQEKKMQIVLQGHATRVTPKSQQSGEKAFRCKYDGCGKLYTTAHHLKVHERSHTGDRPYQCEHSGCGKAFATGYGLKSHFRTHTGEKPYRCSEDNCTKSFKTSGDLQKHIRTHTGERPFKCPIEGCGRSFTTSNIRKVHIRTHTGERPYYCTEPGCGRAFASATNYKNHVRIHTGEKPYVCTVPGCDKRFTEYSSLYKHHVVHTHSKPYNCNHCGKTYKQISTLAMHKRTAHNDTEPIEEEQEAFFEPPPGQGDDVLKGSQITYVTGVDGEDIVSTQVATVTQSGLSQQVTLISQDGTQHVNISQADMQAIGNTITMVTQDGTPITVPTHDAVISSAGTHSVAMVTAEGTEGQQVAIVAQDLAAFHTASSEMGHQQHSHHLVTTETRPLTLVATSNGTQIAVQLGEQPSLEEAIRIASRIQQGETPGLDD
Turning to B1, the binding result in assay [3] is “no binding”.

For the origin of these results see publication PMC8748873.
